# In PubChem BioAssay AID587 (National Center for Advancing Translational Sciences (NCATS), 2007):
# Among all 59,000 compounds or so, about 35 (0.06%) were called active. The inconclusive results got no clear call from the source; some entries with a clear call stand among them for comparison. Cut-off read from the data, not from the text of the source: active = max dye-equivalent concentration above about 10 nM; inconclusive = between about 1.1 nM and that limit; inactive = weaker than that.
# Experiment: qHTS Assay for Spectroscopic Profiling in Texas Red Spectral Region
# Settings: Compound fluorescence, Texas Red channel, 547/618 nm; stronger effect = higher value
# Procedure, shortened: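 Pin-transferred compounds and Texas Red standards go into 100 mM Tris buffer, pH 8.0. After 15 min at room temperature, plates are imaged with 547/618 nm filters. Each value is a dye-equivalent concentration derived from the per-plate dye curve.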
row,SMILES,max dye-equivalent concentration
1,C1CCN=C(Nc2nn[nH]n2)CC1,inconclusive: 1.3 nM
2,CCOCCCNC(=O)C1CCN(C(=O)Nc2ccc(Cl)cc2)CC1,inconclusive: 2.2 nM
3,COCCNC(=O)c1cc2c(=O)n3cccc(C)c3nc2n(Cc2ccncc2)c1=N,inactive
4,CCOC(=O)C1CCCN(C(=O)CCNS(=O)(=O)c2ccc3c(c2)CCC(=O)N3)C1 (centres undefined),inconclusive: 2 nM
5,Cc1ccc(C)c2[nH]c(=O)c(CN(CCCN(C)C)C(=O)NCc3ccccc3)cc12,inconclusive: 1.6 nM
6,CCN(CC)c1ccc(NC(=O)c2cc(OC)cc(OC)c2)c(C)c1,inconclusive: 1.1 nM
7,O=C1NCC2(CCN(CCc3ccccc3)CC2)O1,inconclusive: 1.1 nM
8,CSc1ncc(Cl)c(C(=O)C(C#N)c2nc3c(C)cc(C)cc3c(=O)[nH]2)n1 (centres undefined),inconclusive: 1.7 nM
9,CCc1ccccc1NC(=O)C(CC)Sc1nc2cc3c(cc2c(=O)n1Cc1ccco1)OCO3 (centres undefined),inconclusive: 1.3 nM
10,COC(=O)c1ccc(N/C(C)=C/C(=O)c2ccc(C)o2)cc1,inconclusive: 1.1 nM
11,O=C(CCOc1ccccc1)OCC(=O)c1cc2ccccc2o1,inconclusive: 1.7 nM
12,COC(=O)C(C)n1cnc2c(cnn2-c2ccc(Cl)cc2)c1=O (centres undefined),inconclusive: 2 nM
13,Cc1cc(C)n(CCc2nc(-c3cccs3)cs2)n1,inconclusive: 1.2 nM
14,COC(=O)CSc1nnc([C@H](CC(C)C)NC(=O)OC(C)(C)C)o1,inconclusive: 1.2 nM
15,COCCNc1nc(-c2cccc(NS(C)(=O)=O)c2)nc2ccccc12,inactive
16,O=C(NC1CCCC1)C(c1cccs1)N(Cc1ccco1)C(=O)Cn1nnc(-c2cccs2)n1 (centres undefined),inconclusive: 1.4 nM
17,CCOC(=O)C1=C(C)N=C2SC(C)C(=O)N2C1/C=C/c1ccccc1OC (centres undefined),inconclusive: 1.5 nM
18,CCOc1ccc2[nH]c(=O)c(CN(CC3COCCO3)C(=O)C3CC3)cc2c1 (centres undefined),inconclusive: 1.4 nM
19,Cc1cccc(OCC(O)Cn2c(=N)n(CCN3CCOCC3)c3ccccc32)c1 (centres undefined),inconclusive: 2.4 nM
20,Cc1ccc(S(=O)(=O)Cn2nnnc2CN2CCN(Cc3ccc4c(c3)OCO4)CC2)cc1,inconclusive: 1.1 nM
21,O=C(c1cccc(F)c1)N1CCN(c2cccc(C(F)(F)F)c2)CC1,inconclusive: 2.4 nM

row,SMILES,max dye-equivalent concentration
1,Cc1csc(NC(=O)c2nc3nccc(C)n3n2)n1,inconclusive: 1.8 nM
2,CCOC(=O)O[C@@H](C)OC(=O)[C@@H]1N2C(=O)[C@@H](NC(=O)[C@@H](N)c3ccccc3)[C@H]2SC1(C)C,inconclusive: 1.3 nM
3,Cc1ccccc1C(=O)N1CCC(C(=O)Nc2ccc(F)cc2)CC1,inconclusive: 1.3 nM
4,O=C(CCS(=O)(=O)Cc1ccccc1F)N1CCc2ccccc2C1,inconclusive: 1.5 nM
5,Nc1nc(SCc2ccccc2Cl)cc(C(=O)O)n1,inactive
6,CC(=O)c1c(C)n([O-])c2cc(C)ccc2[n+]1=O,inconclusive: 1.7 nM
7,CC(CN(C)Cc1ccccc1)OC(=O)c1cccs1 (centres undefined),inconclusive: 2.1 nM
8,CCOc1ccc2nc(NC(=O)Cn3cnc4c3c(=O)n(C)c(=O)n4C)sc2c1,inconclusive: 1.3 nM
9,COc1ccc(NS(=O)(=O)c2cccc3cccnc23)cc1,inconclusive: 1.6 nM
10,CN(c1ccc(C(=O)N2CCc3ccccc3C2)cc1)S(C)(=O)=O,inconclusive: 1.1 nM
11,O=C(CSc1nn(-c2ccccc2)c(=S)s1)Nn1cnnc1,inconclusive: 1.9 nM
12,[N-]=[N+]=Nc1ccc(C(=O)CSC[C@@H](NC(=O)CC[C@@H](N)C(=O)O)C(=O)NCC(=O)O)cc1,inconclusive: 1.1 nM
13,Cc1ccc(S(=O)(=O)N2CCC(C(=O)N[C@@H](C)C(=O)NCC3CCCO3)CC2)cc1 (some centres undefined),inconclusive: 1.1 nM
14,Cc1ccc(S(=O)(=O)N2CCN(CCO)CC2)cc1-c1nnc2c3ccccc3c(C)nn12,inconclusive: 1.2 nM
15,COc1ccc(OCc2nnc(SCC(=O)NCc3ccco3)o2)cc1,inconclusive: 1.3 nM
16,Cc1ccc(-c2nc3ccccc3[nH]2)cc1NC(=O)c1ccco1,inconclusive: 1.1 nM
17,O=C(O)[C@@H]1CCCN1Cc1cc2ccccc2c2ccccc12,inactive
18,CCOC(=O)CSc1nnc(CSc2nc3ccccc3c(=O)[nH]2)n1-c1ccccc1,inconclusive: 1.2 nM
19,Cc1nc2c(-c3ccc(F)cc3)c(C)nn2c(N2CCOCC2)c1C,inconclusive: 1.1 nM
20,Cc1nc2ccc(S(=O)(=O)N(C)CC(=O)NCc3ccc4c(c3)OCO4)cc2s1,inconclusive: 1.3 nM
21,C=CCn1c(O)c(CN2CCOCC2)c(C)c(C#N)c1=O,inconclusive: 2.3 nM

row,SMILES,max dye-equivalent concentration
1,O=C(NCCCN1CCN(Cc2ccccc2)CC1)C1CCN(c2nnc(-n3cccc3)s2)CC1,inconclusive: 2.2 nM
2,O=S(=O)(NCCc1ccccn1)c1ccc(F)c(F)c1,inconclusive: 1.5 nM
3,Cn1c(=O)[nH]c(=O)c2c1nc(N1CCOCC1)n2CCSc1ncccn1,inconclusive: 1.1 nM
4,Cc1ccccc1NC(=O)CNc1ccccc1N1CCCCC1,inconclusive: 1.2 nM
5,O=C(NCC1CCCO1)C1CCN(S(=O)(=O)c2cccc3nonc23)CC1 (centres undefined),inconclusive: 1.1 nM
6,CCOC(=O)N1CCC(NC(=O)C2CCN(S(=O)(=O)N3CCCC3)CC2)CC1,inconclusive: 1.1 nM
7,O=C(NCc1ccncc1)c1cccc(Cn2cc(Br)cn2)c1,inconclusive: 1.3 nM
8,CCOC(=O)C1=C(C)NC(SCC(=O)O)=NC1c1ccccc1 (centres undefined),inconclusive: 1.3 nM
9,Cc1cc(=O)[nH]c(SCc2cc(Cl)ccc2OC(F)F)n1,inconclusive: 1.1 nM
10,O=C(Nc1ccc(Cc2ccc(NC(=O)N3CCOCC3)cc2)cc1)N1CCOCC1,inconclusive: 1.2 nM
11,CN(c1cccc(NC(=O)Nc2cccc(Cl)c2)c1)S(C)(=O)=O,inconclusive: 1.6 nM
12,COc1ccc(NC(=O)CCc2nc(-c3ccc(C)cc3)no2)c(OC)c1,inconclusive: 1.6 nM
13,COc1cc2c(cc1OC)CN(C(=O)c1cccs1)CC2,inconclusive: 2.1 nM
14,Cc1ccc(NC(=O)C2CCCN(S(=O)(=O)c3cccs3)C2)cc1 (centres undefined),inconclusive: 1.5 nM
15,CCCCC[C@H](O)c1cccc(OCc2ccc3ccccc3n2)c1,inactive
16,Cc1cc(O)c(C(C)C)cc1CN1CCCCC1,inactive
17,NS(=O)(=O)c1ccc(N=Nc2nc3[nH]cnc(=S)c3[nH]2)cc1,inactive
18,Nc1ncn(C(=O)c2ccco2)n1,inconclusive: 1.3 nM
19,CCn1c(SCC(=O)N2CCCC2)nc2ccccc2c1=O,inconclusive: 1.2 nM
20,Cc1cc(C)c(NC(=O)Cn2c(=O)n(Cc3ccco3)c(=O)c3ccccc32)c(C)c1,inconclusive: 1.2 nM
21,CCN(CC)CCCNC(=O)c1nn(-c2ccc(OC)cc2OC)c(=O)c2ccccc12,inconclusive: 2 nM

row,SMILES,max dye-equivalent concentration
1,COC(=O)c1ccc(NC(=O)CN2C(=O)CCC2=O)cc1,inconclusive: 1.1 nM
2,Cc1noc(C)c1COC(=O)c1cccnc1SCC(=O)Nc1ccc2c(c1)OCO2,inconclusive: 2.1 nM
3,Cc1ccc(-n2nc3c(c2NC(=O)c2ccc4c(c2)OCO4)CSC3)cc1,inconclusive: 1.2 nM
4,CC(C)Cc1[nH]c(=O)c(C#N)c2c1CCCC2,inactive
5,CCOc1ccccc1CN1CCN(S(C)(=O)=O)CC1,inconclusive: 2.7 nM
6,Cc1[nH]c2ccc(-c3nnc(SCC(=O)c4ccccc4F)o3)cc2c1C,inconclusive: 3.8 nM
7,COC(=O)N1CCC2(CC1)CN(c1ccccn1)C2,inactive
8,Cc1ccc(N2C(=O)[C@@H]3[C@H](C2=O)C2c4ccccc4C=CN2[C@@H]3C(=O)c2ccco2)c(C)c1 (some centres undefined),inconclusive: 1.9 nM
9,COc1ccc(N2CCN(CCNC(=O)C3CC(=O)N(C4CCCC4)C3)CC2)cc1 (centres undefined),inconclusive: 1.6 nM
10,O=C(Cn1c(=O)oc2ccccc21)N(Cc1ccccc1)C1CCS(=O)(=O)C1 (centres undefined),inconclusive: 1.2 nM
11,CC(=O)c1c(C(C)=O)c(C)n(NC(=O)c2cccnc2)c1C,inconclusive: 1.4 nM
12,COc1cc(Cl)c(C)cc1NC(=O)COC(=O)c1cnc(C)cn1,inconclusive: 1.2 nM
13,O=C(Nc1ccc(CCC(=O)N2CCCC2)cc1)c1ncn[nH]1,inconclusive: 1.1 nM
14,CNC(=O)CSc1nnc(-c2ccco2)n1-c1ccccc1OC,inconclusive: 1.8 nM
15,CC(C)(C)OC(=O)N1CCC[C@H]1c1nnc(SCc2ccccc2Cl)o1,inconclusive: 1.3 nM
16,COc1ccc(OC)c(C2=Nn3c(nnc3-c3cccc(OC(C)C)c3)SC2)c1,inconclusive: 1.3 nM
17,Cc1nnc(C)c2c(C)n(C(C)c3ccccc3)c(C)c12 (centres undefined),inconclusive: 2.6 nM
18,CC1(C)Cc2c(sc(NC(=O)c3ccco3)c2C#N)CO1,inconclusive: 1.9 nM
19,Cc1nn(Cc2ccc(Cl)c(Cl)c2)c(C)c1NC(=O)c1cc(-c2ccc3c(c2)OCO3)on1,inconclusive: 1.2 nM
20,CC1(C(=O)NC2CCCCCCC2)CCC(=O)N1CCN1CCOCC1 (centres undefined),inconclusive: 1.2 nM
21,COc1ccc(-c2nc3c(=O)n(C)c(=O)[nH]c3n2CCc2ccccc2)cc1,inconclusive: 1.2 nM
